The list shows a part of the results.
Experiments:
Assay in all cases: glycan array binding signal (z-score within array); higher = stronger binding
Settings in all cases: glycan notation: IUPAC condensed, linker removed
[1] = molecular target: Fuc(a1-2)[Gal(a1-3)]Gal(b1-4)GlcNAc(b1-2)Man(a1-3)[Fuc(a1-2)[Gal(a1-3)]Gal(b1-4)GlcNAc(b1-2)Man(a1-6)]Man(b1-4)GlcNAc(b1-4)GlcNAc
Summary of the method: (§1)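 Glycan array data were curated from 3228 arrays in the Consortium for Functional Glycomics database and kept only where the protein sequence was available. Glycan names were converted to IUPAC-condensed notation, and columns mapping to the same glycan were averaged. The binding signal is a within-array Z-score, averaged across arrays of the same protein sequence at different concentrations or buffers and across linkers. Negative Z-scores can be read as non-binding.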

[2] = molecular target: Fuc(a1-2)[Gal(a1-3)]Gal(b1-4)GlcNAc(b1-2)Man(a1-3)[Fuc(a1-2)[Gal(a1-3)]Gal(b1-4)GlcNAc(b1-2)Man(a1-6)]Man(b1-4)GlcNAc(b1-4)[Fuc(a1-6)]GlcNAc
Summary of the method: as §1

[3] = molecular target: Fuc(a1-2)[Gal(a1-3)]Gal(b1-4)GlcNAc(b1-3)GalNAc
Summary of the method: as §1

[4] = molecular target: Fuc(a1-2)[Gal(a1-3)]Gal(b1-4)GlcNAc(b1-6)GalNAc
Summary of the method: as §1

[5] = molecular target: Fuc(a1-2)[Gal(a1-3)]Gal(b1-4)[Fuc(a1-3)]Glc
Summary of the method: as §1

[6] = molecular target: Fuc(a1-2)[Gal(a1-3)]Gal(b1-4)[Fuc(a1-3)]GlcNAc
Summary of the method: as §1

[7] = molecular target: Fuc(a1-2)[Gal(a1-3)]Gal(b1-4)[Fuc(a1-3)]GlcNAc(b1-3)GalNAc
Summary of the method: as §1

[8] = molecular target: Fuc(a1-2)[Gal(a1-4)]Gal(b1-4)GlcNAc
Summary of the method: as §1

[9] = molecular target: Fuc(a1-2)[GalNAc(a1-3)]Gal
Summary of the method: as §1

[10] = molecular target: Fuc(a1-2)[GalNAc(a1-3)]Gal(b1-3)GalNAc(a1-3)[Fuc(a1-2)]Gal(b1-4)GlcNAc
Summary of the method: as §1

[11] = molecular target: Fuc(a1-2)[GalNAc(a1-3)]Gal(b1-3)GalNAc(b1-3)Gal(a1-4)Gal(b1-4)Glc
Summary of the method: as §1

[12] = molecular target: Fuc(a1-2)[GalNAc(a1-3)]Gal(b1-3)GlcNAc
Summary of the method: as §1

[13] = molecular target: Fuc(a1-2)[GalNAc(a1-3)]Gal(b1-3)GlcNAc(b1-2)Man(a1-3)[Fuc(a1-2)[GalNAc(a1-3)]Gal(b1-3)GlcNAc(b1-2)Man(a1-6)]Man(b1-4)GlcNAc(b1-4)GlcNAc
Summary of the method: as §1

[14] = molecular target: Fuc(a1-2)[GalNAc(a1-3)]Gal(b1-3)GlcNAc(b1-2)Man(a1-3)[Fuc(a1-2)[GalNAc(a1-3)]Gal(b1-3)GlcNAc(b1-2)Man(a1-6)]Man(b1-4)GlcNAc(b1-4)[Fuc(a1-6)]GlcNAc
Summary of the method: as §1

[15] = molecular target: Fuc(a1-2)[GalNAc(a1-3)]Gal(b1-3)GlcNAc(b1-3)GalNAc
Summary of the method: as §1

[16] = molecular target: Fuc(a1-2)[GalNAc(a1-3)]Gal(b1-3)GlcNAc(b1-6)GalNAc
Summary of the method: as §1

[17] = molecular target: Fuc(a1-2)[GalNAc(a1-3)]Gal(b1-4)Glc
Summary of the method: as §1

[18] = molecular target: Fuc(a1-2)[GalNAc(a1-3)]Gal(b1-4)GlcNAc
Summary of the method: as §1

[19] = molecular target: Fuc(a1-2)[GalNAc(a1-3)]Gal(b1-4)GlcNAc(b1-2)Man
Summary of the method: as §1

[20] = molecular target: Fuc(a1-2)[GalNAc(a1-3)]Gal(b1-4)GlcNAc(b1-2)Man(a1-3)[Fuc(a1-2)[GalNAc(a1-3)]Gal(b1-4)GlcNAc(b1-2)Man(a1-6)]Man(b1-4)GlcNAc(b1-4)GlcNAc
Summary of the method: as §1

[21] = molecular target: Fuc(a1-2)[GalNAc(a1-3)]Gal(b1-4)GlcNAc(b1-2)Man(a1-3)[Fuc(a1-2)[GalNAc(a1-3)]Gal(b1-4)GlcNAc(b1-2)Man(a1-6)]Man(b1-4)GlcNAc(b1-4)[Fuc(a1-6)]GlcNAc
Summary of the method: as §1

[22] = molecular target: Fuc(a1-2)[GalNAc(a1-3)]Gal(b1-4)GlcNAc(b1-3)Gal(b1-4)GlcNAc
Summary of the method: as §1

[23] = molecular target: Fuc(a1-2)[GalNAc(a1-3)]Gal(b1-4)GlcNAc(b1-3)Gal(b1-4)GlcNAc(b1-3)Gal(b1-4)GlcNAc
Summary of the method: as §1

[24] = molecular target: Fuc(a1-2)[GalNAc(a1-3)]Gal(b1-4)GlcNAc(b1-3)GalNAc
Summary of the method: as §1

[25] = molecular target: Fuc(a1-2)[GalNAc(a1-3)]Gal(b1-4)GlcNAc(b1-3)[Fuc(a1-2)[GalNAc(a1-3)]Gal(b1-4)GlcNAc(b1-6)]GalNAc
Summary of the method: as §1

[26] = molecular target: Fuc(a1-2)[GalNAc(a1-3)]Gal(b1-4)GlcNAc(b1-6)GalNAc
Summary of the method: as §1

[27] = molecular target: Fuc(a1-2)[GalNAc(a1-3)]Gal(b1-4)[Fuc(a1-3)]GlcNAc
Summary of the method: as §1

[28] = molecular target: Fuc(a1-2)[GalNAc(a1-3)]Gal(b1-4)[Fuc(a1-3)]GlcNAc(b1-3)GalNAc
Summary of the method: as §1

[29] = molecular target: Fuc(a1-2)[GalNAc(a1-4)]Gal(b1-4)GlcNAc
Summary of the method: as §1

[30] = molecular target: Fuc(a1-2)[GalNAc(b1-3)]Gal
Summary of the method: as §1

[31] = molecular target: Fuc(a1-3)GlcNAc
Summary of the method: as §1

[32] = molecular target: Fuc(a1-3)[Gal(b1-4)]Glc6S
Summary of the method: as §1

[33] = molecular target: Fuc(a1-3)[Gal(b1-4)]GlcNAc
Summary of the method: as §1

[34] = molecular target: Fuc(a1-3)[Gal(b1-4)]GlcNAc(b1-2)Man
Summary of the method: as §1

[35] = molecular target: Fuc(a1-3)[Gal(b1-4)]GlcNAc(b1-2)Man(a1-3)[Fuc(a1-3)[Gal(b1-4)]GlcNAc(b1-2)Man(a1-6)]Man(b1-4)GlcNAc(b1-4)GlcNAc
Summary of the method: as §1

[36] = molecular target: Fuc(a1-3)[Gal(b1-4)]GlcNAc(b1-2)Man(a1-3)[Fuc(a1-3)[Gal(b1-4)]GlcNAc(b1-2)Man(a1-6)]Man(b1-4)GlcNAc(b1-4)[Fuc(a1-6)]GlcNAc
Summary of the method: as §1

[37] = molecular target: Fuc(a1-3)[Gal(b1-4)]GlcNAc(b1-3)Gal(b1-3)[Fuc(a1-4)]GlcNAc
Summary of the method: as §1

[38] = molecular target: Fuc(a1-3)[Gal(b1-4)]GlcNAc(b1-3)GalNAc
Summary of the method: as §1

[39] = molecular target: Fuc(a1-3)[Gal(b1-4)]GlcNAc(b1-4)Gal(b1-4)[Fuc(a1-3)]GlcNAc
Summary of the method: as §1

[40] = molecular target: Fuc(a1-3)[Gal(b1-4)]GlcNAc(b1-4)Gal(b1-4)[Fuc(a1-3)]GlcNAc(b1-4)Gal(b1-4)[Fuc(a1-3)]GlcNAc
Summary of the method: as §1

[41] = molecular target: Fuc(a1-3)[Gal(b1-4)]GlcNAc(b1-6)GalNAc
Summary of the method: as §1

[42] = molecular target: Fuc(a1-3)[Gal(b1-4)]GlcNAc(b1-6)[Gal(b1-3)GlcNAc(b1-3)]Gal(b1-4)Glc
Summary of the method: as §1

[43] = molecular target: Fuc(a1-3)[Gal(b1-4)]GlcNAc6S
Summary of the method: as §1

[44] = molecular target: Fuc(a1-3)[Gal3S(b1-4)]Glc
Summary of the method: as §1

[45] = molecular target: Fuc(a1-3)[Gal3S(b1-4)]GlcNAc
Summary of the method: as §1

B1: SfaEH (Escherichia coli), Q1RDG5 (protein)
chain: LLCRNNQTGQVFNSGDTSFRVNVSPVVQYDKSISVLDLSQLVSCQNEDSTGQNYDYLKILKGSGFSPALDTKTYGRLDFTSRPTGYARQLPLQFDLQVTEAFYQYGVWKPFPAKLYLYPAPGVFGKVINNGDLLATLYVNKFSTKGQEAGERNFTWRFYATNDVYIQTGTCRVSSNNVKVDLPSYPGGPVTVPLTVRCDQTQSVSYTLSGPVTGSGNTVFANTAASGSGGVGIQLSDNVGPVPAGQPRSLGQVGSSPVSLGLKASYALTGQASPTPGAVQSVINVTFSYN
For B1, the “glycan array binding signal (z-score)” value [1] was -0.531, the “glycan array binding signal (z-score)” value [2] was -0.355 and the “glycan array binding signal (z-score)” value [3] was -0.416. The “glycan array binding signal (z-score)” value [4] was 0.217, the “glycan array binding signal (z-score)” value [5] was -0.344 and the “glycan array binding signal (z-score)” value [6] was 0.283. For the same binder, the “glycan array binding signal (z-score)” value [7] was 0.707, the “glycan array binding signal (z-score)” value [8] was 0.037 and the “glycan array binding signal (z-score)” value [9] was 0.063. The “glycan array binding signal (z-score)” value [10] was -1.39, the “glycan array binding signal (z-score)” value [11] was -0.835 and the “glycan array binding signal (z-score)” value [12] was -0.966. The “glycan array binding signal (z-score)” value [13] was -0.917, the “glycan array binding signal (z-score)” value [14] was -0.875 and the “glycan array binding signal (z-score)” value [15] was -0.891. For the same binder, the “glycan array binding signal (z-score)” value [16] was -0.775, the “glycan array binding signal (z-score)” value [17] was -0.194 and the “glycan array binding signal (z-score)” value [18] was -0.739. The “glycan array binding signal (z-score)” value [19] was 0.567, the “glycan array binding signal (z-score)” value [20] was 0.141 and the “glycan array binding signal (z-score)” value [21] was -0.857. For the same binder, the “glycan array binding signal (z-score)” value [22] was -0.712, the “glycan array binding signal (z-score)” value [23] was -0.209 and the “glycan array binding signal (z-score)” value [24] was -0.41. For the same binder, the “glycan array binding signal (z-score)” value [25] was -0.158, the “glycan array binding signal (z-score)” value [26] was -0.837 and the “glycan array binding signal (z-score)” value [27] was -0.13. For the same binder, the “glycan array binding signal (z-score)” value [28] was 0.359, the “glycan array binding signal (z-score)” value [29] was 0.235 and the “glycan array binding signal (z-score)” value [30] was 0.138. The “glycan array binding signal (z-score)” value [31] was -0.598, the “glycan array binding signal (z-score)” value [32] was -0.568 and the “glycan array binding signal (z-score)” value [33] was -0.018. For the same binder, the “glycan array binding signal (z-score)” value [34] was -0.256, the “glycan array binding signal (z-score)” value [35] was -0.321 and the “glycan array binding signal (z-score)” value [36] was -0.049. For the same binder, the “glycan array binding signal (z-score)” value [37] was -0.789, the “glycan array binding signal (z-score)” value [38] was -0.626 and the “glycan array binding signal (z-score)” value [39] was -0.544. For the same binder, the “glycan array binding signal (z-score)” value [40] was 0.511, the “glycan array binding signal (z-score)” value [41] was -0.1 and the “glycan array binding signal (z-score)” value [42] was 1.44. For the same binder, the “glycan array binding signal (z-score)” value [43] was 0.627, the “glycan array binding signal (z-score)” value [44] was -0.496 and the “glycan array binding signal (z-score)” value [45] was -0.127.

— the supplement of paper PMC8728848
